± gives the standard deviation of the averaged measurements. This data set is noisy: repeats of one test often differ as much as different tests do.
Compound: CC[C@@H](C)Nc1cc(C(=O)N[C@H]2C[C@H]3CC[C@@H](C2)N3c2ccc(C(=O)C3CC3)cn2)c(C)cc1C(N)=O [XL888]
Experiment: phosphopeptide melting temperature shift (XL888 minus DMSO); higher = stabilised by drug treatment
Settings: 100 µM; treatment time 2 h; layout: intact cells; SK-Mel 28
Procedure: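 Phospho-TPP in intact SK-Mel 28 cells treated with 100 uM XL888 or DMSO for 2 h, heated at 10 temperatures (37-67 C) for 3 min, soluble fraction TMT10plex-labelled and TiO2 phospho-enriched. Melting curves were fitted per phosphopeptide; the value is the melting point difference (drug minus vehicle) in each of two biological replicates.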

Chains of the proteins cited; added tags and fusions are not shown. Lines headed by an entry give the natural chain unless they say otherwise; changes in a name come on top.
UniProt O43707, whole entry, looked up: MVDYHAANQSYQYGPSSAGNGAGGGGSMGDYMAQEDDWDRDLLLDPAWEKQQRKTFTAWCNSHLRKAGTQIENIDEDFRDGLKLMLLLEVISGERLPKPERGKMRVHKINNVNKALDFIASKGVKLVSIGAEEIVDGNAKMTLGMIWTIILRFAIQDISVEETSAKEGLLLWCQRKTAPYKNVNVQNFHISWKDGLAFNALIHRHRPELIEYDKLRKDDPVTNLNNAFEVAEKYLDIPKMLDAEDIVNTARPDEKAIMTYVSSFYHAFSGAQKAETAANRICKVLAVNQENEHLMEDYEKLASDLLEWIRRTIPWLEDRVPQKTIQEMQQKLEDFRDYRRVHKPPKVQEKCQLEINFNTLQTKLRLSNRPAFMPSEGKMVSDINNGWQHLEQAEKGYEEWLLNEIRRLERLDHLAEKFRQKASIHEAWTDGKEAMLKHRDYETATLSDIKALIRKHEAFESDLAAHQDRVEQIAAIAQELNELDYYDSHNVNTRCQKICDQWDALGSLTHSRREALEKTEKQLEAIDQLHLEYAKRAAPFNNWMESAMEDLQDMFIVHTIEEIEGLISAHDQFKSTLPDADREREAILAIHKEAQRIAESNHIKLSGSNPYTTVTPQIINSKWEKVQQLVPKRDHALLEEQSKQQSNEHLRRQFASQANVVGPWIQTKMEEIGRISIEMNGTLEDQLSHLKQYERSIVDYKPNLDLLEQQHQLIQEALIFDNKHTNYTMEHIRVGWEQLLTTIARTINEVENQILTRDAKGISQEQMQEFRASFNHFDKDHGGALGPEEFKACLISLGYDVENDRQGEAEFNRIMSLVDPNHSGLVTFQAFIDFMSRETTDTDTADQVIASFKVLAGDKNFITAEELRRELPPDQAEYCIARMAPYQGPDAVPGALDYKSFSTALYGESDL
UniProt Q9Y6D5: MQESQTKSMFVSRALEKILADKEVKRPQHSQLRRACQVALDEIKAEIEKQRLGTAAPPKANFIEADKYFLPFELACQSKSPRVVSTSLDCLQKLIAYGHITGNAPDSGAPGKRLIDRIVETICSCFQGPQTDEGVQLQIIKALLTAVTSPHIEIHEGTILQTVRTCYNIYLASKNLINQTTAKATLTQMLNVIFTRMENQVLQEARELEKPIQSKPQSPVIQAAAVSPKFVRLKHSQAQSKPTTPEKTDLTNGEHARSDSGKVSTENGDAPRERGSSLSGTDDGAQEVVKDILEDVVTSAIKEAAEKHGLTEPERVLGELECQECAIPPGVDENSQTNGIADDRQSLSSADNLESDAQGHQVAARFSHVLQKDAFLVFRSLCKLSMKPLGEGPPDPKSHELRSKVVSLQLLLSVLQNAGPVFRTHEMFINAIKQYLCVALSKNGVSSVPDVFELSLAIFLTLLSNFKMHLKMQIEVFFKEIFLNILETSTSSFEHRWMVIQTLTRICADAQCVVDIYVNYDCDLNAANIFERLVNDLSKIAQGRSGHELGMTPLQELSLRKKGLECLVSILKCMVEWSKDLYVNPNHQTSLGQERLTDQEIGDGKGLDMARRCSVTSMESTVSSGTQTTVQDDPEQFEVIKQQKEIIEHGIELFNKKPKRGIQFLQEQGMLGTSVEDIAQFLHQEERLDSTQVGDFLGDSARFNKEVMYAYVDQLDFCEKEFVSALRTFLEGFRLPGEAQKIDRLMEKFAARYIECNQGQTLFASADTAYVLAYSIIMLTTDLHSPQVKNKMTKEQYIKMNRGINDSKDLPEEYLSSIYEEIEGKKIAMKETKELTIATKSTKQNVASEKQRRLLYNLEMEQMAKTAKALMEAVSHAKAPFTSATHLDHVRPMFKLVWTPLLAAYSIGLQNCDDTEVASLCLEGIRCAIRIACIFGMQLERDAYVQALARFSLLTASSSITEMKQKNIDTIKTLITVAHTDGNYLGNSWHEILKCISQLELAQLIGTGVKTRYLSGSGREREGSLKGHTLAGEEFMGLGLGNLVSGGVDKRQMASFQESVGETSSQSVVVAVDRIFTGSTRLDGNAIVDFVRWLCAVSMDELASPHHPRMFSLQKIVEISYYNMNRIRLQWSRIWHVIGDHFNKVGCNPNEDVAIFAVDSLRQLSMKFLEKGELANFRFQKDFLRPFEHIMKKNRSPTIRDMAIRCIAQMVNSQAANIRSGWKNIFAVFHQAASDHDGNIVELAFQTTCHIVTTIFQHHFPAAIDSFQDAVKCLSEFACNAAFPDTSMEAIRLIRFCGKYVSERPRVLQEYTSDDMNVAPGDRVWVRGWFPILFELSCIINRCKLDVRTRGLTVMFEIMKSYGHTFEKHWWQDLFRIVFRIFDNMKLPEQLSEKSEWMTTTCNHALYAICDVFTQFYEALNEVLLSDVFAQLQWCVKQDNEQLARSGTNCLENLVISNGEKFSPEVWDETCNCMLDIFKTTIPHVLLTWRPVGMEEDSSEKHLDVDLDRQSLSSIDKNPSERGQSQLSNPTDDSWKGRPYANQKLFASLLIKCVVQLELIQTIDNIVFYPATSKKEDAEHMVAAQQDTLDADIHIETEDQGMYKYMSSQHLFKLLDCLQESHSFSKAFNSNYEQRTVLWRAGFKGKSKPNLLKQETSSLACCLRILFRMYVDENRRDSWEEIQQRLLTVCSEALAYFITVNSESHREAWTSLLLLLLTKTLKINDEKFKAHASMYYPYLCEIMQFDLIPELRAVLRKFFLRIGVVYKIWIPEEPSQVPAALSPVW
UniProt O15085: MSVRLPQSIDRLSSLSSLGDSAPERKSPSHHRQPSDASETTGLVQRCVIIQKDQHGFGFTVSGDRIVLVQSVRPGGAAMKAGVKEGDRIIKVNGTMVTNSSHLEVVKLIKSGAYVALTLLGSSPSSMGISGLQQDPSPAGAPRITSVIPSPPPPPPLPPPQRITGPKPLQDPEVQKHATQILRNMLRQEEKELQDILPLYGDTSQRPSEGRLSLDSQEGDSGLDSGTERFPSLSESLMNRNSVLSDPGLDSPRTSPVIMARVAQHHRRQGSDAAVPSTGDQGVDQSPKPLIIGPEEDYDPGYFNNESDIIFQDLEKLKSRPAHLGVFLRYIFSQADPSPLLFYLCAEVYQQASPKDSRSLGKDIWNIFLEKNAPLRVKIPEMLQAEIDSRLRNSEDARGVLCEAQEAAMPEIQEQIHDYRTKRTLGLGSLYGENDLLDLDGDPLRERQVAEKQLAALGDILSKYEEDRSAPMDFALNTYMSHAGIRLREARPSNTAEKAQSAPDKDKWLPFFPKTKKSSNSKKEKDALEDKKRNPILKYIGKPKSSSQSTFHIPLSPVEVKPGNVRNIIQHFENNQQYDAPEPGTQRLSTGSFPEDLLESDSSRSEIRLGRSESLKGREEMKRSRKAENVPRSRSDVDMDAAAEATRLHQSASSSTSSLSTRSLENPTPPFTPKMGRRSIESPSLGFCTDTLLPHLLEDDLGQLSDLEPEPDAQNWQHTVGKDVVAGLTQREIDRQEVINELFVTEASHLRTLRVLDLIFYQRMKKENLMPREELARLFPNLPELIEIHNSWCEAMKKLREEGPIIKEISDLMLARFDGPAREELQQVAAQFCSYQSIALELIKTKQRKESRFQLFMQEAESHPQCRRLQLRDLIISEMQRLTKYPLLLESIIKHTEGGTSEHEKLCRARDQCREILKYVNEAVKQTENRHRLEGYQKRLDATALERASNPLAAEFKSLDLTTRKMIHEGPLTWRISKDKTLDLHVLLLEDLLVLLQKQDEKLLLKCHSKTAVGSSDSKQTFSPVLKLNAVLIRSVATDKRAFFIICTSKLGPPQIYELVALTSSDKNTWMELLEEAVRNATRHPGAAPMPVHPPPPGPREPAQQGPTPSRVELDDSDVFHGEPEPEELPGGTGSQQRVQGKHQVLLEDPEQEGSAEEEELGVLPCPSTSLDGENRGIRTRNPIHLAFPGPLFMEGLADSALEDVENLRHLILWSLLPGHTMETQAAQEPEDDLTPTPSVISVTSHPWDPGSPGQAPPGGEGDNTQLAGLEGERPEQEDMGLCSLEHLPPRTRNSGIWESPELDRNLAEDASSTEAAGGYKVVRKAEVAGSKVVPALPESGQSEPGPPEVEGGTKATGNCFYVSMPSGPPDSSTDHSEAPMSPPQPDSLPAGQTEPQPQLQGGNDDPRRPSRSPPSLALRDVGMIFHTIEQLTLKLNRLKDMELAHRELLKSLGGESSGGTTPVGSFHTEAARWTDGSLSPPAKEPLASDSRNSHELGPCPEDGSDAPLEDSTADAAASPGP
UniProt Q9Y294, whole entry: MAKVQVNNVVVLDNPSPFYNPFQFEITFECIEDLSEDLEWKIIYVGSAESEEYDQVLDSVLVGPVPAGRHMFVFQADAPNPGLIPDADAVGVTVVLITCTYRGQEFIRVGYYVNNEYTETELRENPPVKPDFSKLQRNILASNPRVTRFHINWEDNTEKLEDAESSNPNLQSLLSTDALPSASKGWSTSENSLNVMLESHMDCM
UniProt Q96BY7: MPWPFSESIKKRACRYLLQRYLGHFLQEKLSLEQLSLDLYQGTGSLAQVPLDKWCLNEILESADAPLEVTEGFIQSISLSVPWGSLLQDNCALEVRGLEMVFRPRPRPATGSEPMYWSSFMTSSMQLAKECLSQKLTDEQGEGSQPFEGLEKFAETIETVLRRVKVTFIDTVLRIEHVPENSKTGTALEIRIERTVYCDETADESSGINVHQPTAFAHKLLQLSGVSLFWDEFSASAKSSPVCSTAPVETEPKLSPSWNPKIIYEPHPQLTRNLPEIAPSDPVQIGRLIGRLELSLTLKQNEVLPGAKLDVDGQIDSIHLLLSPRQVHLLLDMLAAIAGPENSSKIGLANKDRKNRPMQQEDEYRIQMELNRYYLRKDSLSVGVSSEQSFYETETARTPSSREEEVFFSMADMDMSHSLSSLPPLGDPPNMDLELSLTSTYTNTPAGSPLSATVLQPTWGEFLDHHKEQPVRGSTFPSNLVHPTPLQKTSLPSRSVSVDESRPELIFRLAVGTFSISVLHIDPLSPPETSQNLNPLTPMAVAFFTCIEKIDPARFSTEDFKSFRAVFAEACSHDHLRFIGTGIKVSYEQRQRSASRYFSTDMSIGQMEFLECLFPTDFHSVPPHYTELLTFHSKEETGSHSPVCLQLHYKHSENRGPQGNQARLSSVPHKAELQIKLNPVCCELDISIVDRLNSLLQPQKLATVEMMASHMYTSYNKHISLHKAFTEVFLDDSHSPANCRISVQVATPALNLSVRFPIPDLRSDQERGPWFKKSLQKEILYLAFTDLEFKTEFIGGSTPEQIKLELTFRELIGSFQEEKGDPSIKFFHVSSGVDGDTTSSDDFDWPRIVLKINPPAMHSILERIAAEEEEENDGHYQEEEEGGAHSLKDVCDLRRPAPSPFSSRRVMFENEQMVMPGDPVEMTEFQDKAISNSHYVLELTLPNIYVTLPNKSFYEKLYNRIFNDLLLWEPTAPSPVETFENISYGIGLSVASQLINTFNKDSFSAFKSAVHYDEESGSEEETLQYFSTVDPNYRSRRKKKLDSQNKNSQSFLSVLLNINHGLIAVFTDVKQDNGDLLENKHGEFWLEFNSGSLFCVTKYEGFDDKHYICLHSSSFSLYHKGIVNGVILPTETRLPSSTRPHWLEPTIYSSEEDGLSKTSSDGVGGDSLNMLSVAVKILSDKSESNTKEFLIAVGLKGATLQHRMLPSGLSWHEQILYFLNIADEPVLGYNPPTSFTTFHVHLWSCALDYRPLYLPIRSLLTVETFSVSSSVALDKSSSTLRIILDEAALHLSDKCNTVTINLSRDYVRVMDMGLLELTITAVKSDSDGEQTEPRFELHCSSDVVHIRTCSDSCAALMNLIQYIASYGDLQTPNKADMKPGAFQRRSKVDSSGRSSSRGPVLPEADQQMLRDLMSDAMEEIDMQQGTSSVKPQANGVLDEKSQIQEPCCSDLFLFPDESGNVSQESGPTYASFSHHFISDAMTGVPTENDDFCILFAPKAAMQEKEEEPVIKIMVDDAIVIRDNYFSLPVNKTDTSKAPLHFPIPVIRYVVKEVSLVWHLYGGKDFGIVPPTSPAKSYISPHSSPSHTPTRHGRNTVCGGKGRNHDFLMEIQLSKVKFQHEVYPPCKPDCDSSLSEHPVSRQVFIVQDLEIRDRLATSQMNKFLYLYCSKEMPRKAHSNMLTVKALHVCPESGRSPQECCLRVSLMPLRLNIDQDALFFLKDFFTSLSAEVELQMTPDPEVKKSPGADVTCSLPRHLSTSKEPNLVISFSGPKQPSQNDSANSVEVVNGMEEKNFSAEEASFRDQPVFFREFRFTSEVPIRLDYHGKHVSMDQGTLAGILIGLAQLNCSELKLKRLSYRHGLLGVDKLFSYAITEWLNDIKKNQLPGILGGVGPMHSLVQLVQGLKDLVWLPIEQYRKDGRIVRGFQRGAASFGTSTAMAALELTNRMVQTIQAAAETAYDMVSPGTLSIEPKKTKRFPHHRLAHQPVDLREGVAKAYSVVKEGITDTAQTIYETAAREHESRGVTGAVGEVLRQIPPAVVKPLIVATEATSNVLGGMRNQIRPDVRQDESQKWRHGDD

Target | phosphopeptide melting temperature shift [°C]
ABCF1 phosphosite_22 (phosphosite position: 22) (UniProt Q8NE71) | 0.364
ABCF1 phosphosite_108 (phosphosite position: 108) (UniProt Q8NE71) | -0.903
ACACA phosphosite_1259 (phosphosite position: 1259) (UniProt Q13085) | -0.282
ACACA phosphosite_1263 (phosphosite position: 1263) (UniProt Q13085) | 0.196
ACIN1 phosphosite_410 (phosphosite position: 410) (UniProt Q9UKV3) | -0.964
ACSS2 phosphosite_267 (phosphosite position: 267) (UniProt Q9NR19) | -0.455
ACTG1 phosphosite_233 (phosphosite position: 233) (UniProt P63261) | 0.604
ACTG1 phosphosite_323 (phosphosite position: 323) (UniProt P63261) | 0.762 ± 0.26
ACTL6A phosphosite_233 (phosphosite position: 233) (UniProt O96019) | 2.94 ± 0.82
ACTN4 phosphosite_159 (phosphosite position: 159) (UniProt O43707) | -0.669 ± 0.66
ACTN4 phosphosite_423 (phosphosite position: 423) (UniProt O43707) | 2.05
ADNP phosphosite_953 (phosphosite position: 953) (UniProt Q9H2P0) | 3.06 ± 2.6
ADNP phosphosite_955 (phosphosite position: 955) (UniProt Q9H2P0) | 2.1 ± 1.2
AFF4 phosphosite_487 (phosphosite position: 487) (UniProt Q9UHB7) | 0.839
AHCTF1 phosphosite_1513 (phosphosite position: 1513) (UniProt Q8WYP5) | 1.54
AHNAK phosphosite_93 (phosphosite position: 93) (UniProt Q09666) | 0.355
AHNAK phosphosite_511 (phosphosite position: 511) (UniProt Q09666) | -4.45
AHNAK phosphosite_1452 (phosphosite position: 1452) (UniProt Q09666) | 0.597
AHNAK phosphosite_4766 (phosphosite position: 4766) (UniProt Q09666) | 0.892
AKAP10 phosphosite_187 (phosphosite position: 187) (UniProt O43572) | 2.08
AKAP11 phosphosite_1337 (phosphosite position: 1337) (UniProt Q9UKA4) | 0.362 ± 0.2
AKT1S1 phosphosite_88 (phosphosite position: 88) (UniProt Q96B36) | -2.52
AKT1S1 phosphosite_92 (phosphosite position: 92) (UniProt Q96B36) | -2.52
AKT2 phosphosite_451 (phosphosite position: 451) (UniProt P31751) | 0.703

Part of the list above, tab-delimited:
Target	phosphopeptide melting temperature shift [°C]
ACTG1 phosphosite_323 (phosphosite position: 323) (UniProt P63261)	0.762 ± 0.26
ACTL6A phosphosite_233 (phosphosite position: 233) (UniProt O96019)	2.94 ± 0.82
ACTN4 phosphosite_159 (phosphosite position: 159) (UniProt O43707)	-0.669 ± 0.66

Next part

Target | phosphopeptide melting temperature shift [°C]
ALDOA phosphosite_39 (phosphosite position: 39) (UniProt P04075) | 0.425
ALDOA phosphosite_46 (phosphosite position: 46) (UniProt P04075) | 2.46
ALS2 phosphosite_483 (phosphosite position: 483) (UniProt Q96Q42) | 0.225 ± 0.76
ALS2 phosphosite_492 (phosphosite position: 492) (UniProt Q96Q42) | 0.559 ± 0.29
ALS2 phosphosite_1464 (phosphosite position: 1464) (UniProt Q96Q42) | 2.48
ANAPC4 phosphosite_777 (phosphosite position: 777) (UniProt Q9UJX5) | 0.52 ± 2.2
ANAPC4 phosphosite_779 (phosphosite position: 779) (UniProt Q9UJX5) | 0.52 ± 2.2
ANKS1A phosphosite_647 (phosphosite position: 647) (UniProt Q92625) | 1.84 ± 0.65
ANKS1A phosphosite_663 (phosphosite position: 663) (UniProt Q92625) | 2.67
ANXA2 phosphosite_12 (phosphosite position: 12) (UniProt P07355) | 0.0773 ± 0.33
ARFGAP2 phosphosite_146 (phosphosite position: 146) (UniProt Q8N6H7) | 2.54 ± 0.61
ARFGEF1 phosphosite_52 (phosphosite position: 52) (UniProt Q9Y6D6) | 1.07
ARFGEF1 phosphosite_1555 (phosphosite position: 1555) (UniProt Q9Y6D6) | 1.68
ARFGEF2 phosphosite_218 (phosphosite position: 218) (UniProt Q9Y6D5) | 0.92
ARFGEF2 phosphosite_349 (phosphosite position: 349) (UniProt Q9Y6D5) | 1.48 ± 1
ARFGEF2 phosphosite_614 (phosphosite position: 614) (UniProt Q9Y6D5) | -0.457 ± 0.86
ARFGEF2 phosphosite_1511 (phosphosite position: 1511) (UniProt Q9Y6D5) | 1.68 ± 1.2
ARFGEF2 phosphosite_1514 (phosphosite position: 1514) (UniProt Q9Y6D5) | 0.528 ± 0.68
ARHGAP21 phosphosite_1503 (phosphosite position: 1503) (UniProt Q5T5U3) | 2.72
ARHGEF5 phosphosite_184 (phosphosite position: 184) (UniProt Q12774) | 0.221
ARHGEF11 phosphosite_556 (phosphosite position: 556) (UniProt O15085) | -0.215 ± 0.99
ARHGEF11 phosphosite_668 (phosphosite position: 668) (UniProt O15085) | 1.36 ± 0.23
ARHGEF11 phosphosite_1292 (phosphosite position: 1292) (UniProt O15085) | 2.62
ARHGEF11 phosphosite_1295 (phosphosite position: 1295) (UniProt O15085) | 3.3

Target | phosphopeptide melting temperature shift [°C]
ARHGEF40 phosphosite_419 (phosphosite position: 419) (UniProt Q8TER5) | -0.371 ± 0.38
ASAP1 phosphosite_837 (phosphosite position: 837) (UniProt Q9ULH1) | 2.02
ASAP1 phosphosite_839 (phosphosite position: 839) (UniProt Q9ULH1) | 1.4 ± 1.9
ASAP1 phosphosite_1027 (phosphosite position: 1027) (UniProt Q9ULH1) | -1.58 ± 0.59
ASAP1 phosphosite_1128 (phosphosite position: 1128) (UniProt Q9ULH1) | 0.147 ± 0.36
ASF1A phosphosite_166 (phosphosite position: 166) (UniProt Q9Y294) | 0.615 ± 0.45
ATG2B phosphosite_497 (phosphosite position: 497) (UniProt Q96BY7) | 1.22
ATG2B phosphosite_1579 (phosphosite position: 1579) (UniProt Q96BY7) | 4.43
ATG2B phosphosite_1583 (phosphosite position: 1583) (UniProt Q96BY7) | 4.43
ATG16L1 phosphosite_269 (phosphosite position: 269) (UniProt Q676U5) | 1.05
ATM phosphosite_1881 (phosphosite position: 1881) (UniProt Q13315) | 0.808
ATM phosphosite_1981 (phosphosite position: 1981) (UniProt Q13315) | -2.59
AVEN phosphosite_94 (phosphosite position: 94) (UniProt Q9NQS1) | 2.32
BCKDHA phosphosite_337 (phosphosite position: 337) (UniProt P12694) | -0.683 ± 1.8
BCL9 phosphosite_104 (phosphosite position: 104) (UniProt O00512) | 1.68
BCL9 phosphosite_917 (phosphosite position: 917) (UniProt O00512) | 0.272 ± 0.57
BICD2 phosphosite_568 (phosphosite position: 568) (UniProt Q8TD16) | 0.759 ± 0.84
BICD2 phosphosite_574 (phosphosite position: 574) (UniProt Q8TD16) | 2.74
BIRC6 phosphosite_480 (phosphosite position: 480) (UniProt Q9NR09) | 0.98 ± 0.83
BRD4 phosphosite_1117 (phosphosite position: 1117) (UniProt O60885) | -5.45
BRD9 phosphosite_103 (phosphosite position: 103) (UniProt Q9H8M2) | 4.03
BYSL phosphosite_98 (phosphosite position: 98) (UniProt Q13895) | 0.907

From the supplement of paper PMC5836539
